According to PubChem BioAssay AID2685 (National Center for Advancing Translational Sciences (NCATS), 2010):
The list shows a part of the results. Shown are side measurements of this screen, not its main read-out; they come without a call. The list favours compounds with an active or inconclusive main result. The note in brackets gives the kind of curve behind each potency; many fits are weak.

Assay: qHTS Assay for Lipid Storage Modulators in Drosophila S3 Cells;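 as to cell number change: cells counted by Cell Tracker Red CMTPX staining in the red channel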
Conditions: BODIPY lipid droplet fluorescence, 18-24 h; for cell number change: measured here: cell count max response, cells fed with added oleic acid
Procedure, shortened: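 Drosophila S3 cells got compounds at several concentrations plus oleic acid (400 uM solution). Laser-scanning cytometry with 488 nm excitation read lipid droplets at 500-530 nm and cells at 575-640 nm. Percent activity was relative to 20 uM Triacsin C.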

[1] = measured here: lipid fluorescence (Fed channel) AC50, cells fed with added oleic acid
[2] = measured here: cell number channel AC50, cells fed with added oleic acid

| SMILES | AC50 [1] | cell number change [%] | AC50 [2] |
| --- | --- | --- | --- |
| CCOc1cccc(CNCc2ccncc2)c1 | 29.1 µM [rising, single point] | – | – |
| COc1cc(OC)cc(C(=O)NNC(=S)Nc2ccccc2OC)c1 | 2.91 µM [rising, partial curve] | 1.14 | 3.26 µM [rising, partial curve] |
| CC(C)N=C1SCC(C)(/C=N/O)S1 (centres undefined) | – | 7.12 | – |
| COc1ccc(C(=O)COC(=O)c2cc(C)no2)c(OC)c1 | 0.731 µM [falling, full curve] | 8.43 | – |
| Cc1oc(-c2ccccc2F)nc1CSCC(=O)NC1CCC(C)CC1 (centres undefined) | 6.51 µM [rising, partial curve] | – | – |
| CCCOP(=O)(c1ccc(N(C)C)cc1)C(O)c1ccncc1 (centres undefined) | 0.00651 µM [falling, full curve, poor fit] | 3.52 | – |
| CSc1cccc(NC(=S)NC(=O)c2cccnc2)c1 | – | 9.12 | – |
| O=[N+]([O-])c1cc(-c2ccn[nH]2)ccc1Cl | – | 9.91 | – |
| CC(C(=O)NC1CCCCC1)N1CCN(S(=O)(=O)c2cccs2)CC1 (centres undefined) | 5.17 µM [rising, full curve, poor fit] | 17.1 | – |
| COC(=O)CNC(c1ccccc1Cl)c1cc(Br)ccc1NS(=O)(=O)c1ccc(C)cc1 (centres undefined) | 0.231 µM [rising, full curve, poor fit] | 16.4 | – |
| COC(=O)c1c(-n2cnnn2)sc(C)c1C | 0.103 µM [falling, full curve, poor fit] | -4.94 | – |
| O=C(c1cccs1)N1CCCC(c2nc3c(nnn3Cc3ccc(F)cc3)c(=O)[nH]2)C1 (centres undefined) | – | -18.4 | – |
| O=C(NC1CCCCC1)C1CC(=O)N(Cc2ccccc2)C1 (centres undefined) | 6.51 µM [falling, single point] | 13.9 | – |
| O=C(COC(=O)/C=C/c1cccc([N+](=O)[O-])c1)Nc1ccc(Cl)cn1 | – | 4.44 | – |
| CCOC(=O)N1CCc2c(sc3c2c(=O)n(Cc2ccccc2)c(=O)n3CC(=O)NCC2CCCO2)C1 (centres undefined) | 3.26 µM [rising, single point] | 7.08 | 6.51 µM [rising, single point] |
| CNC(=O)CSc1nc2cc(S(=O)(=O)Nc3ccccc3OC)ccc2o1 | 6.51 µM [rising, single point] | 1.68 | – |
| CC1=C(C(=O)OCc2ccccc2)C(c2cccc(Br)c2)NC(=O)N1 (centres undefined) | 6.51 µM [falling, partial curve, poor fit] | -25.5 | – |
| CCN1CCN(C(=O)C(C)Sc2nnc3nc(C)cc(C)n23)CC1 (centres undefined) | 0.00651 µM [falling, full curve, poor fit] | -16.8 | 0.731 µM [falling, partial curve, poor fit] |
| Cc1ccccc1NS(=O)(=O)c1cc(C(=O)Nc2cccnc2)ccc1C | 29.1 µM [falling, single point] | 1.62 | – |
| O=C(c1ccc(COc2ccc(F)cc2)o1)n1cccn1 | 0.092 µM [falling, full curve, poor fit] | -1.44 | – |
| CCn1c(SCC(=O)Nc2ccc(C)cc2)nc2sc3c(c2c1=O)CCN(C)C3 | 6.51 µM [rising, single point] | -15.1 | – |

A draw from above in order of SMILES length, high to low.

| SMILES | AC50 [1] | cell number change [%] | AC50 [2] |
| --- | --- | --- | --- |
| CCOC(=O)N1CCc2c(sc3c2c(=O)n(Cc2ccccc2)c(=O)n3CC(=O)NCC2CCCO2)C1 (centres undefined) | 3.26 µM [rising, single point] | 7.08 | 6.51 µM [rising, single point] |
| O=C(c1cccs1)N1CCCC(c2nc3c(nnn3Cc3ccc(F)cc3)c(=O)[nH]2)C1 (centres undefined) | – | -18.4 | – |
| O=C(COC(=O)/C=C/c1cccc([N+](=O)[O-])c1)Nc1ccc(Cl)cn1 | – | 4.44 | – |
| CCn1c(SCC(=O)Nc2ccc(C)cc2)nc2sc3c(c2c1=O)CCN(C)C3 | 6.51 µM [rising, single point] | -15.1 | – |
| CNC(=O)CSc1nc2cc(S(=O)(=O)Nc3ccccc3OC)ccc2o1 | 6.51 µM [rising, single point] | 1.68 | – |
| CCN1CCN(C(=O)C(C)Sc2nnc3nc(C)cc(C)n23)CC1 (centres undefined) | 0.00651 µM [falling, full curve, poor fit] | -16.8 | 0.731 µM [falling, partial curve, poor fit] |
| Cc1oc(-c2ccccc2F)nc1CSCC(=O)NC1CCC(C)CC1 (centres undefined) | 6.51 µM [rising, partial curve] | – | – |
| COc1cc(OC)cc(C(=O)NNC(=S)Nc2ccccc2OC)c1 | 2.91 µM [rising, partial curve] | 1.14 | 3.26 µM [rising, partial curve] |
| CCCOP(=O)(c1ccc(N(C)C)cc1)C(O)c1ccncc1 (centres undefined) | 0.00651 µM [falling, full curve, poor fit] | 3.52 | – |
| O=C(NC1CCCCC1)C1CC(=O)N(Cc2ccccc2)C1 (centres undefined) | 6.51 µM [falling, single point] | 13.9 | – |
| COC(=O)c1c(-n2cnnn2)sc(C)c1C | 0.103 µM [falling, full curve, poor fit] | -4.94 | – |
| CC(C)N=C1SCC(C)(/C=N/O)S1 (centres undefined) | – | 7.12 | – |

Following part:

| SMILES | AC50 [1] | cell number change [%] | AC50 [2] |
| --- | --- | --- | --- |
| O=C1CCCN1c1ccc(S(=O)(=O)NCCc2ccc(Cl)cc2)cc1 | – | -5.39 | – |
| C/C(=N/NC(=O)CNC(=O)C1COc2ccccc2O1)c1ccc([N+](=O)[O-])cc1 (centres undefined) | 6.51 µM [rising, single point] | 11.7 | – |
| CCOc1ccccc1N1CCN(C(=O)c2ccc(OCC(=O)N3CCOCC3)c(OC)c2)CC1 | 14.1 µM [falling, single point] | -22.3 | – |
| Cc1ccccc1C(=O)NCC(=O)OCC(=O)NC(C)C1CC2CCC1C2 (centres undefined) | 29.1 µM [falling, single point] | -39.1 | 29.1 µM [falling, single point] |
| O=C(N/N=C/c1sc(N2CCCCC2)nc1-c1cccs1)C1CC1 | – | – | 2.59 µM [rising, single point] |
| CC(=O)c1cccc(NS(=O)(=O)c2ccc(C(=O)Nc3ccccc3)cc2)c1 | – | -37.2 | – |
| Cc1cc(NC(=O)COc2cccnc2[N+](=O)[O-])no1 | 0.651 µM [falling, full curve] | 34 | – |
| CC(NC(=O)C1CCN(S(=O)(=O)c2cccs2)CC1)c1cccc(Cl)c1 (centres undefined) | 1.84 µM [rising, partial curve, poor fit] | -8.41 | – |
| COc1ccc(-n2nc(C(=O)NCC(=O)NCCCN3CCOCC3)c3ccccc3c2=O)c(OC)c1 | 29.1 µM [falling, single point] | 18 | – |
| CCCC1C2CN(C(C)C)CC=C2C(C#N)=C(N)C1(C#N)C#N (centres undefined) | 2.59 µM [rising, single point] | -15 | – |
| CCOc1ccc(NC(=O)CSc2nc3cccnc3n2CC)cc1 | – | 6.07 | – |
| O=S(=O)(Nc1ccc(Cl)cc1)c1ccc2c(c1)CCO2 | 1.03 µM [falling, full curve, poor fit] | -27.6 | – |
| CC(C)n1c(O)c(N=Nc2ccccn2)c2ccccc21 | 1.84 µM [rising, partial curve] | 21.1 | – |
| Cc1nc2cc(C(=O)NCc3ccc4c(c3)OCO4)ccc2n1-c1ccc(Br)cc1 | 6.51 µM [rising, partial curve, poor fit] | 26.3 | – |
| CCOC(=O)C(C#N)C(c1cccnc1)c1c(C)[nH][nH]c1=O (centres undefined) | – | – | 0.13 µM [falling, full curve, poor fit] |
| Nc1ccccc1NC(=O)NC(=O)c1ccccc1 | 29.1 µM [rising, single point] | 10.6 | – |
| Cc1ccc(NC(=O)CCNC(=O)c2ccc([N+](=O)[O-])cc2)cc1S(=O)(=O)N(C)C | 0.13 µM [falling, full curve, poor fit] | -18.3 | – |
| CCCn1nnc(NC(=O)c2ccccc2Cl)n1 | 0.58 µM [falling, partial curve] | 7.64 | – |
| Cc1ccc(OCCCC(=O)N(C)CC(=O)Nc2ccccc2Br)cc1 | – | 44.6 | 20.6 µM [rising, partial curve] |
| COc1ccc(C(=O)Nc2nc3ccccc3s2)c(OC)c1 | – | -41.2 | 23.1 µM [falling, partial curve, poor fit] |
